{
  "source": "the supplement of paper PMC8728848",
  "binders": {"B1": {"name": "PX9961K-bvu-480-28-480 (Bacteroides vulgatus) (protein)", "chain": "NKIPTTMAFRTVTDVDNAVNGLYDLMSGSGYYGAAMFAYGDMKGDDMQSSEESGVCNTCYMFNHRPNSLNAGSLWGRPFYILREAWNILNAIAEGKIESGDEKKLNALKGETMAVIALCQFDLTRCFGYPYTKDKGASLGAPLIDHLVGTYENPPRSTVAQAYDFIIETLEEAVTLMSEEKNNGRMNKYAARALLARIYLYHDDNRKAFDLADQLIKDADTSGSYALYPHEKYVAAWSVEAKFGSESFFEIANSVDDTPGRDSWGYLLNWYGYQKGFVTQKYAEQMLADPGDVRGHLLEENKYAGKTVWWLYKLRGTDLKTAPLECNNVVLRLSEVYLIAAEAGCKLGGDAAVQGLGYLNEIVKRGNPDNEVTMADYTLDRVLDERSKELVGEGHRFFDLLRNGKTIVRKGGYHLPSVDEEVDWDFYKCVLPIPEDQFIFSPEMEQNPGYPKN"}},
  "assay_in_all_cases": "glycan array binding signal (z-score within array); higher = stronger binding",
  "settings_in_all_cases": "glycan notation: IUPAC condensed, linker removed",
  "key": {"[1]": {"target": "Neu5Ac(a2-6)Gal(b1-4)GlcNAc(b1-3)Gal(b1-4)GlcNAc(b1-3)Gal(b1-4)GlcNAc(b1-2)Man(a1-3)[Neu5Ac(a2-6)Gal(b1-4)GlcNAc(b1-3)Gal(b1-4)GlcNAc(b1-3)Gal(b1-4)GlcNAc(b1-2)Man(a1-6)]GalNAc", "method_in_brief": "(§1)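 Negative Z-scores can be read as non-binding. The Z-score is calculated within each array and then averaged across arrays of one protein sequence at different concentrations or buffers and across linkers. Arrays, 3228 in all, were curated from the Consortium for Functional Glycomics database and kept only where the protein sequence was available.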"}, "[2]": {"target": "Neu5Ac(a2-6)Gal(b1-4)GlcNAc(b1-3)Gal(b1-4)GlcNAc(b1-3)GalNAc", "method_in_brief": "as §1"}, "[3]": {"target": "Neu5Ac(a2-6)Gal(b1-4)GlcNAc(b1-3)Gal(b1-4)GlcNAc(b1-3)[Neu5Ac(a2-6)Gal(b1-4)GlcNAc(b1-3)Gal(b1-4)GlcNAc(b1-6)]GalNAc", "method_in_brief": "as §1"}, "[4]": {"target": "Neu5Ac(a2-6)Gal(b1-4)GlcNAc(b1-3)Gal(b1-4)GlcNAc(b1-6)[Gal(b1-3)]GalNAc", "method_in_brief": "as §1"}, "[5]": {"target": "Neu5Ac(a2-6)Gal(b1-4)GlcNAc(b1-3)Gal(b1-4)[Fuc(a1-3)]GlcNAc(b1-3)Gal(b1-4)[Fuc(a1-3)]GlcNAc", "method_in_brief": "as §1"}, "[6]": {"target": "Neu5Ac(a2-6)Gal(b1-4)GlcNAc(b1-3)GalNAc", "method_in_brief": "as §1"}, "[7]": {"target": "Neu5Ac(a2-6)Gal(b1-4)GlcNAc(b1-3)[Neu5Ac(a2-6)Gal(b1-4)GlcNAc(b1-6)]GalNAc", "method_in_brief": "as §1"}, "[8]": {"target": "Neu5Ac(a2-6)Gal(b1-4)GlcNAc(b1-6)GalNAc", "method_in_brief": "as §1"}, "[9]": {"target": "Neu5Ac(a2-6)Gal(b1-4)GlcNAc(b1-6)[Gal(b1-3)GlcNAc(b1-3)]Gal(b1-4)Glc", "method_in_brief": "as §1"}, "[10]": {"target": "Neu5Ac(a2-6)Gal(b1-4)GlcNAc(b1-6)[Gal(b1-3)]GalNAc", "method_in_brief": "as §1"}, "[11]": {"target": "Neu5Ac(a2-6)Gal(b1-4)GlcNAc6S", "method_in_brief": "as §1"}, "[12]": {"target": "Neu5Ac(a2-6)GalNAc", "method_in_brief": "as §1"}, "[13]": {"target": "Neu5Ac(a2-6)GalNAc(b1-4)GlcNAc", "method_in_brief": "as §1"}, "[14]": {"target": "Neu5Ac(a2-6)GalNAc(b1-4)GlcNAc6S", "method_in_brief": "as §1"}, "[15]": {"target": "Neu5Ac(a2-6)GlcNAc(b1-4)GlcNAc", "method_in_brief": "as §1"}, "[16]": {"target": "Neu5Ac(a2-6)GlcNAc(b1-4)GlcNAc(b1-4)GlcNAc", "method_in_brief": "as §1"}, "[17]": {"target": "Neu5Ac(a2-8)Neu5Ac", "method_in_brief": "as §1"}, "[18]": {"target": "Neu5Ac(a2-8)Neu5Ac(a2-3)Gal(b1-3)GalNAc(b1-4)[Neu5Ac(a2-3)]Gal(b1-4)Glc", "method_in_brief": "as §1"}, "[19]": {"target": "Neu5Ac(a2-8)Neu5Ac(a2-3)Gal(b1-3)GalNAc(b1-4)[Neu5Ac(a2-8)Neu5Ac(a2-3)]Gal(b1-4)Glc", "method_in_brief": "as §1"}, "[20]": {"target": "Neu5Ac(a2-8)Neu5Ac(a2-3)Gal(b1-4)Glc", "method_in_brief": "as §1"}, "[21]": {"target": "Neu5Ac(a2-8)Neu5Ac(a2-3)Gal(b1-4)GlcNAc", "method_in_brief": "as §1"}, "[22]": {"target": "Neu5Ac(a2-8)Neu5Ac(a2-3)[Gal(b1-3)GalNAc(b1-4)]Gal(b1-4)Glc", "method_in_brief": "as §1"}, "[23]": {"target": "Neu5Ac(a2-8)Neu5Ac(a2-3)[GalNAc(b1-4)]Gal(b1-4)Glc", "method_in_brief": "as §1"}, "[24]": {"target": "Neu5Ac(a2-8)Neu5Ac(a2-8)Neu5Ac", "method_in_brief": "as §1"}, "[25]": {"target": "Neu5Ac(a2-8)Neu5Ac(a2-8)Neu5Ac(a2-3)Gal(b1-4)Glc", "method_in_brief": "as §1"}, "[26]": {"target": "Neu5Ac(a2-8)Neu5Ac(a2-8)Neu5Ac(a2-3)[Gal(b1-3)GalNAc(b1-4)]Gal(b1-4)Glc", "method_in_brief": "as §1"}, "[27]": {"target": "Neu5Ac(a2-8)Neu5Ac(a2-8)Neu5Ac(a2-3)[GalNAc(b1-4)]Gal(b1-4)Glc", "method_in_brief": "as §1"}, "[28]": {"target": "Neu5Ac(a2-8)Neu5Ac(a2-8)Neu5Ac(a2-8)Neu5Ac(a2-3)[GalNAc(b1-4)]Gal(b1-4)Glc", "method_in_brief": "as §1"}, "[29]": {"target": "Neu5Ac(a2-8)Neu5Gc(a2-3)Gal(b1-4)GlcNAc", "method_in_brief": "as §1"}, "[30]": {"target": "Neu5Ac(b2-6)Gal(b1-4)GlcNAc", "method_in_brief": "as §1"}, "[31]": {"target": "Neu5Ac(b2-6)GalNAc", "method_in_brief": "as §1"}, "[32]": {"target": "Neu5Ac9Ac(a2-3)Gal(b1-3)GlcNAc", "method_in_brief": "as §1"}, "[33]": {"target": "Neu5Ac9Ac(a2-3)Gal(b1-4)GlcNAc", "method_in_brief": "as §1"}, "[34]": {"target": "Neu5Ac9Ac(a2-6)Gal(b1-4)GlcNAc", "method_in_brief": "as §1"}, "[35]": {"target": "Neu5Gc(a2-3)Gal(b1-3)GlcNAc", "method_in_brief": "as §1"}, "[36]": {"target": "Neu5Gc(a2-3)Gal(b1-3)[Fuc(a1-4)]GlcNAc", "method_in_brief": "as §1"}, "[37]": {"target": "Neu5Gc(a2-3)Gal(b1-4)Glc", "method_in_brief": "as §1"}, "[38]": {"target": "Neu5Gc(a2-3)Gal(b1-4)GlcNAc", "method_in_brief": "as §1"}, "[39]": {"target": "Neu5Gc(a2-3)Gal(b1-4)GlcNAc(b1-3)Gal(b1-4)GlcNAc(b1-2)Man(a1-3)[Neu5Gc(a2-3)Gal(b1-4)GlcNAc(b1-3)Gal(b1-4)GlcNAc(b1-2)Man(a1-6)]Man(b1-4)GlcNAc(b1-4)GlcNAc", "method_in_brief": "as §1"}, "[40]": {"target": "Neu5Gc(a2-3)Gal(b1-4)[Fuc(a1-3)]GlcNAc", "method_in_brief": "as §1"}, "[41]": {"target": "Neu5Gc(a2-6)Gal(b1-4)GlcNAc", "method_in_brief": "as §1"}, "[42]": {"target": "Neu5Gc(a2-6)GalNAc", "method_in_brief": "as §1"}, "[43]": {"target": "Neu5Gc(a2-8)Neu5Ac(a2-3)Gal(b1-4)GlcNAc", "method_in_brief": "as §1"}, "[44]": {"target": "Neu5Gc(a2-8)Neu5Gc(a2-3)Gal(b1-4)GlcNAc", "method_in_brief": "as §1"}, "[45]": {"target": "Neu5Gc(a2-8)Neu5Gc(a2-3)Gal(b1-4)GlcNAc(b1-3)Gal(b1-4)GlcNAc", "method_in_brief": "as §1"}},
  "note": "This is one part of the list.",
  "data": [
    {"binder": "B1", "values": [
      {"measurement": "glycan array binding signal (z-score)", "setting": "[1]", "value": 1.68},
      {"measurement": "glycan array binding signal (z-score)", "setting": "[2]", "value": -0.51},
      {"measurement": "glycan array binding signal (z-score)", "setting": "[3]", "value": 0.842},
      {"measurement": "glycan array binding signal (z-score)", "setting": "[4]", "value": 0.328},
      {"measurement": "glycan array binding signal (z-score)", "setting": "[5]", "value": -0.726},
      {"measurement": "glycan array binding signal (z-score)", "setting": "[6]", "value": -0.715},
      {"measurement": "glycan array binding signal (z-score)", "setting": "[7]", "value": -0.532},
      {"measurement": "glycan array binding signal (z-score)", "setting": "[8]", "value": 0.313},
      {"measurement": "glycan array binding signal (z-score)", "setting": "[9]", "value": -0.718},
      {"measurement": "glycan array binding signal (z-score)", "setting": "[10]", "value": -0.301},
      {"measurement": "glycan array binding signal (z-score)", "setting": "[11]", "value": -0.825},
      {"measurement": "glycan array binding signal (z-score)", "setting": "[12]", "value": -0.746},
      {"measurement": "glycan array binding signal (z-score)", "setting": "[13]", "value": -0.376},
      {"measurement": "glycan array binding signal (z-score)", "setting": "[14]", "value": -1.26},
      {"measurement": "glycan array binding signal (z-score)", "setting": "[15]", "value": -0.301},
      {"measurement": "glycan array binding signal (z-score)", "setting": "[16]", "value": 0.25},
      {"measurement": "glycan array binding signal (z-score)", "setting": "[17]", "value": -0.144},
      {"measurement": "glycan array binding signal (z-score)", "setting": "[18]", "value": 0.209},
      {"measurement": "glycan array binding signal (z-score)", "setting": "[19]", "value": -0.442},
      {"measurement": "glycan array binding signal (z-score)", "setting": "[20]", "value": -0.84},
      {"measurement": "glycan array binding signal (z-score)", "setting": "[21]", "value": -0.587},
      {"measurement": "glycan array binding signal (z-score)", "setting": "[22]", "value": -0.283},
      {"measurement": "glycan array binding signal (z-score)", "setting": "[23]", "value": 1.37},
      {"measurement": "glycan array binding signal (z-score)", "setting": "[24]", "value": -0.804},
      {"measurement": "glycan array binding signal (z-score)", "setting": "[25]", "value": 0.763},
      {"measurement": "glycan array binding signal (z-score)", "setting": "[26]", "value": -0.141},
      {"measurement": "glycan array binding signal (z-score)", "setting": "[27]", "value": -0.463},
      {"measurement": "glycan array binding signal (z-score)", "setting": "[28]", "value": 0.837},
      {"measurement": "glycan array binding signal (z-score)", "setting": "[29]", "value": 19.1},
      {"measurement": "glycan array binding signal (z-score)", "setting": "[30]", "value": -0.708},
      {"measurement": "glycan array binding signal (z-score)", "setting": "[31]", "value": 0.065},
      {"measurement": "glycan array binding signal (z-score)", "setting": "[32]", "value": -0.942},
      {"measurement": "glycan array binding signal (z-score)", "setting": "[33]", "value": 0.711},
      {"measurement": "glycan array binding signal (z-score)", "setting": "[34]", "value": -0.16},
      {"measurement": "glycan array binding signal (z-score)", "setting": "[35]", "value": -0.227},
      {"measurement": "glycan array binding signal (z-score)", "setting": "[36]", "value": -0.201},
      {"measurement": "glycan array binding signal (z-score)", "setting": "[37]", "value": -0.786},
      {"measurement": "glycan array binding signal (z-score)", "setting": "[38]", "value": 0.165},
      {"measurement": "glycan array binding signal (z-score)", "setting": "[39]", "value": 0.711},
      {"measurement": "glycan array binding signal (z-score)", "setting": "[40]", "value": -0.246},
      {"measurement": "glycan array binding signal (z-score)", "setting": "[41]", "value": -0.443},
      {"measurement": "glycan array binding signal (z-score)", "setting": "[42]", "value": -0.48},
      {"measurement": "glycan array binding signal (z-score)", "setting": "[43]", "value": 0.097},
      {"measurement": "glycan array binding signal (z-score)", "setting": "[44]", "value": -0.371},
      {"measurement": "glycan array binding signal (z-score)", "setting": "[45]", "value": -0.216}
    ]}
  ]
}
